For two molecules, binding results are on record in PMC7835385.

No constants are given. Whether binding was seen depends on the method and setting. Some binding calls cover weakened binding; strength is not graded here.

The experiment deals with myosin-7a heavy chain (Drosophila), FLAG-tagged, co-expressed with light chains (Drosophila) (UniProt Q9V3Z6). Briefly: co-purification (FLAG affinity chromatography) with SDS-PAGE densitometry; heavy chain and light chains co-expressed in Sf9; heavy chain captured by its FLAG tag; 150 mM NaCl, 2 mM ATP washes.

In the case of “Drosophila cytoplasmic myosin light chain (Mlc-c) (from UniProt P54357 1-147)”, the binding entry was “binds”.

B1: Drosophila RLC/sqh (protein, UniProt P40423 1-174)
light: MSSRKTAGRRATTKKRAQRATSNVFAMFDQAQIAEFKEAFNMIDQNRDGFVEKEDLHDMLASLGKNPTDDYLDGMMNEAPGPINFTMFLTLFGERLQGTDPEDVIKNAFGCFDEENMGVLPEDRLRELLTTMGDRFTDEDVDEMYREAPIKNGLFDYLEFTRILKHGAKDKDEQ
As for B1, the binding result is on record as “no binding”.
